Paper PMC9949642
These are yes or no findings as the source states them, for the method shown. Binding seen in cells or lysates may run through a third protein. Some results given as binding are weak or reduced against the parent protein; the word gives no strength. Where a sequence is shown, tags or fusion partners need not be part of it.

Target: T1, ZTF-7::GFP::3xFLAG (C. elegans) (UniProt Q20448)
T1 sequence: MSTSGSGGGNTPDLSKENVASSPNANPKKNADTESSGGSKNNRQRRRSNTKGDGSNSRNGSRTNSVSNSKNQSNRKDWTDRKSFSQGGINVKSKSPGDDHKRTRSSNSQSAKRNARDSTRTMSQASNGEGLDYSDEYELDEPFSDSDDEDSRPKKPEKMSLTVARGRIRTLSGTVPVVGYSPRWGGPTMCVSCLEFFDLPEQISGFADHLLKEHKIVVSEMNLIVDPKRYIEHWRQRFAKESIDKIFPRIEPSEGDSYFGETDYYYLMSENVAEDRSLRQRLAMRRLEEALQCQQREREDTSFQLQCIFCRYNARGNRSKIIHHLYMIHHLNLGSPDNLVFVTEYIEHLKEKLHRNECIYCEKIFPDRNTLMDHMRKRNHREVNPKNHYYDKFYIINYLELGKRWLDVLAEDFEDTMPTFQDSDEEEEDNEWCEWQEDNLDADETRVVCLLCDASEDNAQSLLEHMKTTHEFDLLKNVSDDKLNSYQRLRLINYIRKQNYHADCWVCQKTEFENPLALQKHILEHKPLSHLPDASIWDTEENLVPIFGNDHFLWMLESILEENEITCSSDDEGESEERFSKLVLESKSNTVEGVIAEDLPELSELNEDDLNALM
Test: co-IP; L3/L4 animals expressing ZTF-7::GFP::3xFLAG and 3xHA::RPS-2; IP with anti-FLAG antibody, RPS-2 detected by anti-HA antibody; with and without cold-warm shock (no significant effect detected)

binding: binds
B1: 3xHA::RPS-2 (protein, UniProt P51403 1-272)
chain: MADRGGFQSGFGGRGGGRGGARPAGDRPAGRGGRGGRGGRGGRGGRAGRGGEKETEWTPVTKLGRLVKEKKITTLEEIYLNSLPIKEFEIIDALCSNLKDEVLKISPVQKQTTAGQRTRFKAFVAIGDHAGHVGLGVKCSKEVATAIRGAIVAAKLAVVPVRRGYWGNKIGLPHTVPCKVTGKCASVMVRLIPAPRGTGIVSAPVPKKLLHMAGIEDCYTAAKGSTATLGNFAKATYAALQRTYSYLTPDLWKEEALEKSPYQRHHEYLARN
